Laboratory results: paper PMC7504496
No constants are given. Whether binding was seen depends on the method and setting.

Molecular target: A96 (elastin-like polypeptide)
Assay: dynamic light scattering; 10 μM in dPBS, 25 °C and 37 °C, 384-well plate, Wyatt Dynapro plate reader; followed for 7 days at 37 °C; both purified

B1: A96 (elastin-like polypeptide) (protein)
chain: MGVPGAGVPGAGVPGAGVPGAGVPGAGVPGAGVPGAGVPGAGVPGAGVPGAGVPGAGVPGAGVPGAGVPGAGVPGAGVPGAGVPGAGVPGAGVPGAGVPGAGVPGAGVPGAGVPGAGVPGAGVPGAGVPGAGVPGAGVPGAGVPGAGVPGAGVPGAGVPGAGVPGAGVPGAGVPGAGVPGAGVPGAGVPGAGVPGAGVPGAGVPGAGVPGAGVPGAGVPGAGVPGAGVPGAGVPGAGVPGAGVPGAGVPGAGVPGAGVPGAGVPGAGVPGAGVPGAGVPGAGVPGAGVPGAGVPGAGVPGAGVPGAGVPGAGVPGAGVPGAGVPGAGVPGAGVPGAGVPGAGVPGAGVPGAGVPGAGVPGAGVPGAGVPGAGVPGAGVPGAGVPGAGVPGAGVPGAGVPGAGVPGAGVPGAGVPGAGVPGAGVPGAGVPGAGVPGAGVPGAGVPGAGVPGAGVPGAGVPGAGVPGAGVPGAGVPGAGVPGAGY
binding: no binding (tested: 10 μM)
